Test results taken from PubChem BioAssay AID1259415 (National Center for Advancing Translational Sciences (NCATS), 2018).
About 18,000 (4.4%) of roughly 410,000 compounds were called active. Inconclusive results, whose numbers are uncertain, are shown with a selection of clear calls. No stated cut-off is given here; in the data, active means activity change below about -60%; inconclusive means no clear call, values can overlap the other calls; inactive means above about -39%.
On the % scale 0 is the no-effect control and ±100 the full control effect.

Assay: qHTS Assay for inhibitors of the human cytomegalovirus (HCMV)
Settings: HFF cells, HCMV-luciferase reporter, 72 h; at 57.5 µM; stronger effect = lower value
Outline: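 Compounds were evaluated in HFFs infected with an HCMV luciferase reporter virus (MOI 1 PFU/cell). Luciferase in lysates collected 72 h post infection served as the replication measure.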
For `CCOc1ccc(NC(=O)CN(C)C(=O)c2c(-c3c(F)cccc3Cl)noc2C)cc1OCC`, the activity change, negative = inhibition was inactive: -17.3%.
With `COc1ccc(N(CC(=O)Nc2ccc(Cl)cc2)S(=O)(=O)c2c(C)n[nH]c2C)cc1` the activity change, negative = inhibition was inconclusive: -40.8%.
With `CCN1CCN(c2c(Cl)cccc2NC(=O)c2ccc3c(c2)OCCO3)CC1` the activity change, negative = inhibition was inactive: 0.775%.
In the case of `Cc1ccc(C)c(Cn2c(=O)n(Cc3ccc4c(c3)OCO4)c(=O)c3oc4ccccc4c32)c1`, the activity change, negative = inhibition is reported as inconclusive: -45.2%.
In the case of `Cc1nc2sc(C(=O)Nc3ccc(F)cc3)c(N)c2c(-c2ccc(Br)cc2)c1C(=O)Nc1ccc(Cl)cc1`, the activity change, negative = inhibition is reported as inactive: 27.7%.
For `O=c1c2ccccc2nc(/C=C/c2ccc(Cl)cc2)n1CCO`, the activity change, negative = inhibition was inconclusive: -42.5%.
With `CC(C)(C)c1csc(NC(=O)CSc2nc3ccccc3c(=O)[nH]2)n1` the activity change, negative = inhibition was active: -107%.
For `Cc1ccc2[nH]cc(C(=O)CCl)c2c1`, the activity change, negative = inhibition was active: -91.1%.
With `CC(C)(C)NC(=S)NC(C)(C)C` the activity change, negative = inhibition was inconclusive: -50.3%.
In the case of `CCCCNC(=O)C(NC(=O)c1ccc(-c2ccccc2)cc1)C(=O)c1ccccc1` (stereo not drawn), the activity change, negative = inhibition is reported as active: -80.9%.
In the case of `N#Cc1ccc(C(=O)Nc2ccn(-c3ccccc3)n2)cc1`, the activity change, negative = inhibition is reported as active: -74.9%.
For `Cc1ccc(Cn2c(C)c(C(=O)NCc3ccccc3C(F)(F)F)sc2=O)cc1`, the activity change, negative = inhibition was inconclusive: -55.3%.
With `CC1(c2ccccc2)CC(C)(C)N(C(=O)CSc2nnc(N)s2)c2ccccc21` (stereo not drawn) the activity change, negative = inhibition was inconclusive: -50.1%.
For `Cc1ccc(-c2nnc(SCC(=O)NC3CCCC3)n2C)cc1`, the activity change, negative = inhibition was inconclusive: -48.8%.
With `CCC1=NN(C(=O)c2ccccc2Br)C(O)(c2ccc(Br)cc2)C1` (stereo not drawn) the activity change, negative = inhibition was inactive: 8.01%.
With `Cc1ccc(Cl)cc1N1CCN(C(=O)c2cccn3c(=O)c4cc(Cl)ccc4nc23)CC1` the activity change, negative = inhibition was inactive: -4.38%.
With `CC(C)OCCCNC(=O)c1cc2c(s1)CS(=O)(=O)C2` the activity change, negative = inhibition was inconclusive: -47.4%.
For `Cc1ccc(-n2nc3c(c2NC(=O)CCC2CCCCC2)CS(=O)C3)cc1` (stereo not drawn), the activity change, negative = inhibition was active: -68.2%.
With `CCOc1cc(N2CCOCC2)c(OCC)cc1NC(=O)CN1C(=O)NC2(CCCCCCC2)C1=O` the activity change, negative = inhibition was inconclusive: -40.2%.
For `CC(C)(C)OC(=O)NCCCCCc1nnc(SCc2ccccc2)o1`, the activity change, negative = inhibition was inconclusive: -52.8%.
With `C=C(C)CCC(C)N1CCC(n2nccc2NC(=O)CCOc2ccccc2)CC1` (stereo not drawn) the activity change, negative = inhibition was active: -89.2%.
With `COc1ccc(C(=O)N2CCCCCC2)cc1OC1CCN(C(C)=O)CC1` the activity change, negative = inhibition was active: -78.3%.
In the case of `N#Cc1c(NC(=O)CSc2ccccn2)oc(-c2ccccc2)c1-c1ccccc1`, the activity change, negative = inhibition is reported as inactive: -19%.
In the case of `CCOC(=O)c1cc(C)n(CC2CCC(C(=O)Nc3ccc(OCC)cc3)CC2)c1C` (stereo not drawn), the activity change, negative = inhibition is reported as active: -60.6%.
With `CC(C)C(NC(=O)c1ccccc1)C(=O)OCC(=O)N1CCCC1` (stereo not drawn) the activity change, negative = inhibition was inactive: -30.7%.
With `Cc1ccc(C)c(CN2C(=O)C3(c4ccccc42)N(c2cccc(C(F)(F)F)c2)C(=O)CS3(=O)=O)c1` (stereo not drawn) the activity change, negative = inhibition was inconclusive: -42.7%.
In the case of `COc1ccc(S(=O)(=O)N2CCOCC2)cc1NC(=O)CSc1ncnc2ccccc12`, the activity change, negative = inhibition is reported as active: -109%.
For `N=c1c(C(=O)NCc2ccco2)cc2c(=O)n3ccccc3nc2n1CCc1ccccc1`, the activity change, negative = inhibition was inconclusive: -42.2%.
For `CCOc1ccc(Cc2nnc(SCC(=O)c3ccc(OC)cc3)o2)cc1`, the activity change, negative = inhibition was inactive: 0.52%.
In the case of `Cn1c(N)c(C(=O)CSc2nn(-c3ccc(F)cc3)c(=S)s2)c(=O)n(C)c1=O`, the activity change, negative = inhibition is reported as inconclusive: -42.7%.
For `O=C(NCCc1ccc(Cl)cc1)C1CCN(S(=O)(=O)c2cccs2)CC1`, the activity change, negative = inhibition was inconclusive: -40.1%.
In the case of `Cc1ccc(Cl)cc1NC(=O)c1ccccc1OCC(=O)N1CCOCC1`, the activity change, negative = inhibition is reported as inconclusive: -57.1%.
With `Cc1cccc(C)c1-n1c(SCC(=O)Nc2ccc(C(=O)O)cc2)nnc1-c1cccc(S(=O)(=O)N(C)C)c1` the activity change, negative = inhibition was inconclusive: -42.1%.
In the case of `CCOc1ccccc1NC(=O)C1CCCN(c2c(CC)c(C)nc3ncnn23)C1` (stereo not drawn), the activity change, negative = inhibition is reported as inconclusive: -52.4%.
For `Cc1ccccc1OCCC(=O)NNC(=O)COc1cccc(F)c1`, the activity change, negative = inhibition was inconclusive: -51.2%.
For `O=C(C1CCCN(S(=O)(=O)c2ccc(Br)s2)C1)N1CCN(c2ccc(F)cc2)CC1` (stereo not drawn), the activity change, negative = inhibition was inconclusive: -47.2%.
For `CCc1ccc(NC(=O)c2ccc(F)c(S(=O)(=O)N(C)C3CCCCC3)c2)cc1`, the activity change, negative = inhibition was active: -98.3%.
With `CN(CCc1ccccc1)C(=O)c1ccc(NC(=O)Cc2ccc(NC(=O)C3CCN(C(=O)C4CCCCC4)CC3)cc2)cc1` the activity change, negative = inhibition was active: -60.4%.
In the case of `Cc1nonc1C1CCCN1Cc1cn[nH]c1-c1ccc(-c2ccccc2)cc1` (stereo not drawn), the activity change, negative = inhibition is reported as inconclusive: -41.8%.
For `Cc1ccc(Cl)cc1-n1c(=O)cc(N2CCN(c3ccccc3)CC2)[nH]c1=O`, the activity change, negative = inhibition was inconclusive: -50.8%.
With `C(=N\Nc1nc(Nc2ccccc2)nc(Nc2ccccc2)n1)/c1cccnc1` the activity change, negative = inhibition was inconclusive: -50.3%.
In the case of `CCn1c(C)[n+](CC)c2ccc(S(=O)(=O)NC)cc21`, the activity change, negative = inhibition is reported as inconclusive: -43.1%.
With `Cc1cccc2cc(CN(CCCN(C)C)C(=S)NCCc3ccccc3)c(=O)[nH]c12` the activity change, negative = inhibition was inconclusive: -44.6%.
With `Cc1nc2scc(C)n2c(=O)c1S(=O)(=O)N1CCN(c2ccccc2F)CC1` the activity change, negative = inhibition was inconclusive: -43.8%.
For `COc1cc(OC)c(NC(=O)c2nc(-c3ccncc3)no2)cc1Cl`, the activity change, negative = inhibition was inactive: -9.36%.
In the case of `Cc1cccc(-n2c(SCC(=O)N(C)C3CCS(=O)(=O)C3)nc3ccccc3c2=O)c1C` (stereo not drawn), the activity change, negative = inhibition is reported as inconclusive: -40.6%.
With `Cc1ccc(OCC(=O)Nc2cccc(C(=O)OCc3cc(=O)n4cc(C)sc4n3)c2)cc1` the activity change, negative = inhibition was inconclusive: -40.2%.
With `O=C(NC1CC(=O)c2sccc21)c1ccc(Cl)cc1Cl` (stereo not drawn) the activity change, negative = inhibition was inactive: -12.2%.
In the case of `Cc1cc(Cl)ccc1C(=O)C1CCCN(C2CCSCC2)C1` (stereo not drawn), the activity change, negative = inhibition is reported as inconclusive: -46.4%.
In the case of `O=C(COc1ncnc2cc([N+](=O)[O-])ccc12)NC1CCCCC1`, the activity change, negative = inhibition is reported as inconclusive: -42.9%.
For `Cc1ccc(Cl)cc1N1CCN(C(=O)c2c(C)oc3ncnc(N4CCOCC4)c23)CC1`, the activity change, negative = inhibition was inactive: 7.8%.
In the case of `COc1ccc(/C=N/NC(=O)C2C3CCCCC32C)cc1OC` (stereo not drawn), the activity change, negative = inhibition is reported as inconclusive: -47.8%.
In the case of `CNS(=O)(=O)c1ccc(N=Cc2c(O)n(-c3cccc(C)c3)c(=O)[nH]c2=O)cc1`, the activity change, negative = inhibition is reported as inconclusive: -53.6%.
